Reference: article PMC6971018

What was measured:
[1] = target: T1, CutC choline lyase, full length (Klebsiella pneumoniae) (UniProt A6TB41); assay: SEC; proteins co-expressed in E. coli BL21-DE3; cleared lysate pelleted at 50,000g for 3 h, pellet gel-filtered on Superose 6 16/900 in 300 mM NaCl, 20 mM Tris-HCl pH 8.0; fractions 60-120 ml by SDS-PAGE and TEM
T1 sequence: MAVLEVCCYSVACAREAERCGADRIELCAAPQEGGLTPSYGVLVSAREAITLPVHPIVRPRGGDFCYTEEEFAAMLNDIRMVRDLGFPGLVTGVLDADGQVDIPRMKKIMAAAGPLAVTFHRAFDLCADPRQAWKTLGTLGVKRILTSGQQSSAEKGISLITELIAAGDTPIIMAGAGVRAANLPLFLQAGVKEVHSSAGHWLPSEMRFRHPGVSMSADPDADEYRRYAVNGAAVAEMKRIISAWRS

[2] = target: T1, CutC choline lyase, full length (Klebsiella pneumoniae); assay: SEC; purified His6x-tagged core enzymes, alone and together, on the Superose 6 column; both purified

| Substance | binding [1] | binding [2] |
| --- | --- | --- |
| CutF aldehyde dehydrogenase, co-expressed with shell genes (Klebsiella pneumoniae) (enzyme) | binds |  |
| His6x-CutF, purified (Klebsiella pneumoniae) (enzyme) |  | binds |

No constants are given. Whether binding was seen depends on the method and setting. A result given as binding can be weak or reduced; the word gives no strength.
